This is an account of results in the supplement of paper PMC11542785.

For this test, the system named is Drosophila melanogaster DPAGT1 (Alg7) RNAi eye model. As to the kind of experiment: eye size Z-score vs DMSO-treated DPAGT1 model flies; higher = larger eye (suppression of DPAGT1 phenotype). Particulars: 5 uM.

Where a name gives a salt, the structure may show the parent alone. This is one part of the list. Many values rest on one well or one pass, so single values are uncertain.

With `Nc1cccc2c1C(=O)N(C1CCC(=O)NC1=O)C2=O` (stereo unspecified) [Pomalidomide], the “eye size Z-score” value is -0.55.

As for `CN1C(=O)CC(c2ccccc2)C1=O` (stereo unspecified) [Phensuximide], the “eye size Z-score” value is -0.36.

For the compound `CC1CNc2c(cccc2S(=O)(=O)N[C@@H](CCCNC(=N)N)C(=O)N2CC[C@@H](C)C[C@@H]2C(=O)O)C1` (stereo partly specified) [Argatroban], the “eye size Z-score” value is -0.68.

Take `CN(C)CCN(Cc1ccccc1)c1ccccn1` [Tripelennamine hydrochloride]: the “eye size Z-score” value is 0.57.

As for `CC(=O)O[C@@]12CO[C@@H]1C[C@H](O)[C@@]1(C)C(=O)[C@H](O)C3=C(C)[C@@H](OC(=O)[C@H](O)[C@@H](NC(=O)OC(C)(C)C)c4ccccc4)C[C@@](O)([C@@H](OC(=O)c4ccccc4)[C@H]21)C3(C)C` [Docetaxel], the “eye size Z-score” value is -0.69.

As to `Clc1ccc(CSC(Cn2ccnc2)c2ccc(Cl)cc2Cl)cc1` (stereo unspecified) [Sulconazole nitrate], the “eye size Z-score” value was -0.13.

Consider `C#C[C@]1(OC(C)=O)CC[C@H]2[C@@H]3CCC4=CC(=NO)CC[C@@H]4[C@H]3CC[C@@]21CC` (mixture of isomers) [Norgestimate], for which the “eye size Z-score” value turned out to be 0.88.

In the case of `CCCc1c2oc(C(=O)O)cc(=O)c2cc2c(=O)cc(C(=O)O)n(CC)c12` [Nedocromil sodium], the “eye size Z-score” value worked out at 0.54.

In the case of `CC(=O)Oc1ccc(C(=C2CCCCC2)c2ccc(OC(C)=O)cc2)cc1` [Cyclofenil], the “eye size Z-score” value was -0.22.

`CC(=O)O[C@]1(C(C)=O)CC[C@H]2[C@@H]3C=C(Cl)C4=CC(=O)[C@@H]5C[C@@H]5[C@]4(C)[C@H]3CC[C@@]21C` [Cyproterone acetate]: the “eye size Z-score” value stood at 0.06.

For `Clc1ccc(CO/N=C(\Cn2ccnc2)c2ccc(Cl)cc2Cl)c(Cl)c1` [Oxiconazole nitrate], the “eye size Z-score” value turned out to be 0.31.

Consider `CCCSc1nc(N[C@@H]2C[C@H]2c2ccc(F)c(F)c2)c2nnn([C@@H]3C[C@H](OCCO)[C@@H](O)[C@H]3O)c2n1` [Ticagrelor], for which the “eye size Z-score” value was 0.52.

Regarding `CC(=O)OC[C@H]1O[C@@H](n2ncc(=O)[nH]c2=O)[C@H](OC(C)=O)[C@@H]1OC(C)=O` [Azaribine], the “eye size Z-score” value turned out to be 0.41.

Consider `O=C(O)COCCN1CCN(C(c2ccccc2)c2ccc(Cl)cc2)CC1` (stereo unspecified) [Cetirizine dihydrochloride], for which the “eye size Z-score” value came to 0.34.

For the compound `N[C@@H]1CONC1=O` [D-cycloserine], the “eye size Z-score” value was 2.85.

Regarding `N=C(N)Nc1ccc(C(=O)Oc2ccc3cc(C(=N)N)ccc3c2)cc1` [Nafamostat Mesylate], the “eye size Z-score” value is 0.37.

As for `Clc1ccc(Cn2c(CN3CCCC3)nc3ccccc32)cc1` [Clemizole hydrochloride], the “eye size Z-score” value came to 0.32.

Consider `COc1cc2nc(N(C)CCCNC(=O)C3CCCO3)nc(N)c2cc1OC` (stereo unspecified) [Alfuzosin hydrochloride], for which the “eye size Z-score” value came out at 0.07.

Take `CC(=O)Oc1ccccc1C(=O)O` [Acetylsalicylic acid]: the “eye size Z-score” value is -0.37.

For `N=C(N)NS(=O)(=O)c1ccc(N)cc1` [Sulfaguanidine], the “eye size Z-score” value was 1.44.

Consider `CC1=C(/C=C/C(C)=C/C=C/C(C)=C/C(=O)O)C(C)(C)CCC1` [Retinoic acid], for which the “eye size Z-score” value stood at 0.12.

As to `NC(=O)c1cc[n+](CC2=C(C(=O)[O-])N3C(=O)[C@@H](NC(=O)[C@@H](c4ccccc4)S(=O)(=O)O)[C@H]3SC2)cc1` [Cefsulodin sodium salt], the “eye size Z-score” value was -0.19.

In the case of `CCc1c(C)[nH]c2c1C(=O)C(CN1CCOCC1)CC2` (stereo unspecified) [Molindone hydrochloride], the “eye size Z-score” value was 0.63.

`CC1=C(C(=O)O)N2C(=O)[C@@H](NC(=O)[C@H](N)C3=CCC=CC3)[C@H]2SC1` [Cephradine monohydrate]: the “eye size Z-score” value stood at 0.21.

For `N[C@@H](CCC(=O)N[C@@H](CS)C(=O)NCC(=O)O)C(=O)O` [Glutathione], the “eye size Z-score” value was -0.52.

For the compound `CCC1(c2ccccc2)NC(=O)N(C)C1=O` (stereo unspecified) [Mephenytoin], the “eye size Z-score” value was -1.17.

For `CC1(C)[C@H](C(=O)O)N2C(=O)C[C@H]2S1(=O)=O` [Sulbactam], the “eye size Z-score” value was -0.17.

Turning to `Cc1ncc(CO)c(CO)c1O` [Pyridoxine hydrochloride], the “eye size Z-score” value was -0.13.

`Cc1cc(C(C)(C)C)c(O)c(C)c1CC1=NCCN1` [Oxymetazoline hydrochloride]: the “eye size Z-score” value amounted to 0.29.

For the compound `CN(C)CCCN1c2ccccc2Sc2ccccc21` [Promazine hydrochloride], the “eye size Z-score” value is 0.06.

For the compound `NS(=O)(=O)c1cc(C(=O)O)cc(N2CCCC2)c1Oc1ccccc1` [Piretanide], the “eye size Z-score” value turned out to be 0.4.

Consider `COc1ccc([C@@H]2CC(=O)c3c(O)cc(O[C@@H]4O[C@H](CO[C@@H]5O[C@@H](C)[C@H](O)[C@@H](O)[C@H]5O)[C@@H](O)[C@H](O)[C@H]4O)cc3O2)cc1O` [Hesperidin], for which the “eye size Z-score” value was determined as 0.41.

For `CC(C)(C(=O)O)c1ccc(C(O)CCCN2CCC(C(O)(c3ccccc3)c3ccccc3)CC2)cc1` (stereo unspecified) [Fexofenadine hydrochloride], the “eye size Z-score” value is -0.4.

As to `Cc1c(C)c2c(c(C)c1O)CCC(C)(COc1ccc(CC3SC(=O)NC3=O)cc1)O2` (stereo unspecified) [Troglitazone], the “eye size Z-score” value is -1.03.

In the case of `COC(c1ccccc1)(c1ccccc1)[C@H](Oc1nc(C)cc(C)n1)C(=O)O` [Ambrisentan], the “eye size Z-score” value stood at 0.01.

Consider `COC(=O)C1=C(C)NC(C)=C(C(=O)OCCN2CCN(C(c3ccccc3)c3ccccc3)CC2)C1c1cccc([N+](=O)[O-])c1` (stereo unspecified) [Manidipine Dihydrochloride], for which the “eye size Z-score” value was found to be 0.46.

For `CC(=O)Nc1ccccc1` [Acetanilide], the “eye size Z-score” value is -0.93.

As to `CC(C(=O)O)c1ccc2c(c1)Cc1cccnc1O2` (stereo unspecified) [Pranoprofen], the “eye size Z-score” value turned out to be 0.77.

With `COC(=O)Nc1nc2cc(C(=O)c3ccccc3)ccc2[nH]1` [Mebendazole], the “eye size Z-score” value was -0.07.

For `CC(C)c1ccc2oc3nc(N)c(C(=O)O)cc3c(=O)c2c1` [Amlexanox], the “eye size Z-score” value was found to be 1.08.

In the case of `CC1(C)S[C@@H]2[C@H](NC(=O)[C@H](NC(=O)N3CCNC3=O)c3ccccc3)C(=O)N2[C@H]1C(=O)O` [Azlocillin sodium salt], the “eye size Z-score” value was 0.58.

Consider `Cc1cc2c(cc1S(N)(=O)=O)S(=O)(=O)CCC2` [Meticrane], for which the “eye size Z-score” value stood at 0.82.

As to `NCCNCCNCCNCCN` [Tetraethylenepentamine pentahydrochloride], the “eye size Z-score” value was 0.64.

`Cc1onc(-c2c(Cl)cccc2Cl)c1C(=O)N[C@@H]1C(=O)N2[C@@H]1SC(C)(C)[C@@H]2C(=O)O` [Dicloxacillin sodium salt hydrate]: the “eye size Z-score” value was found to be 0.06.

Consider `CN(C)/N=N/c1[nH]cnc1C(N)=O` [Dacarbazine], for which the “eye size Z-score” value is -0.03.

For the compound `CC[N+](C)(C)Cc1ccccc1Br` [Bretylium tosylate], the “eye size Z-score” value was -1.11.

Regarding `C[N+](C)(C)CCCCCC[N+](C)(C)C` [Hexamethonium dibromide dihydrate], the “eye size Z-score” value (female) was -0.57.

With `CC1CC(OC(=O)C(O)c2ccccc2)CC(C)(C)C1` (stereo unspecified) [Cyclandelate], the “eye size Z-score” value is -0.59.

For `O=C(O)c1cccnc1Nc1cccc(C(F)(F)F)c1` [Niflumic acid], the “eye size Z-score” value amounted to 0.04.

As to `CCOC(=O)c1c(N)sc2c1CCN(Cc1ccccc1)C2` [Tinoridine hydrochloride], the “eye size Z-score” value worked out at 0.44.

In the case of `Cc1oncc1C(=O)Nc1ccc(C(F)(F)F)cc1` [Leflunomide], the “eye size Z-score” value is 0.05.

As to `COc1ccc(C(Cl)=C(c2ccc(OC)cc2)c2ccc(OC)cc2)cc1` [Chlorotrianisene], the “eye size Z-score” value came out at 0.71.

Turning to `CCOC(=O)[C@H](CCc1ccccc1)N[C@@H](C)C(=O)N1Cc2ccccc2C[C@H]1C(=O)O` [Quinapril hydrochloride], under “female”, the “eye size Z-score” value is 0.35.

Regarding `CC(CCc1ccccc1)NCC(O)c1ccc(O)c(C(N)=O)c1` (stereo unspecified) [Labetalol hydrochloride], the “eye size Z-score” value was -1.89.

As for `Fc1ccc(C(c2ccc(F)cc2)N2CCN(C/C=C/c3ccccc3)CC2)cc1` [Flunarizine dihydrochloride], the “eye size Z-score” value amounted to 0.39.

On to `Cc1ccc(Nc2c(F)cccc2Cl)c(CC(=O)O)c1` [Lumiracoxib], for which the “eye size Z-score” value turned out to be 0.14.

As to `CC(C)(CO)[C@@H](O)C(=O)NCCCC(=O)O` [Hopantenate calcium], the “eye size Z-score” value was -0.16.

Turning to `NC(N)=Nc1nc(CSCCN/C=N/S(=O)(=O)c2ccc(Br)cc2)cs1` [Ebrotidine], the “eye size Z-score” value was 0.3.

On to `CCCCC(=O)O[C@H]1CC[C@H]2[C@@H]3CCc4cc(O)ccc4[C@H]3CC[C@]12C` [Estradiol Valerate], for which the “eye size Z-score” value is -0.07.

Regarding `N=C(N)c1ccc(OCCCCCOc2ccc(C(=N)N)cc2)cc1` [Pentamidine isethionate], the “eye size Z-score” value is -0.48.

As to `Cn1c(NCCN(CCO)CCCc2ccc([N+](=O)[O-])cc2)cc(=O)n(C)c1=O` [Nifekalant], the “eye size Z-score” value is -0.84.

Turning to `OCCOCCN1CCN(C2=Nc3ccccc3Sc3ccccc32)CC1` [Quetiapine hemifumarate], the “eye size Z-score” value was -0.1.

As to `COc1cccc2c1C(=O)c1c(O)c3c(c(O)c1C2=O)C[C@@](O)(C(=O)CO)C[C@@H]3O[C@H]1C[C@H](N)[C@H](O)[C@H](C)O1` [Doxorubicin hydrochloride], the “eye size Z-score” value is -0.33.

Turning to `CCC(=O)O[C@@H](O[P@](=O)(CCCCc1ccccc1)CC(=O)N1C[C@H](C2CCCCC2)C[C@H]1C(=O)O)C(C)C` [Fosinopril], the “eye size Z-score” value is -0.17.

In the case of `CC1(C)S[C@@H]2[C@H](NC(=O)[C@H](N)c3ccc(O)cc3)C(=O)N2[C@H]1C(=O)O` [Amoxicillin], the “eye size Z-score” value (female) amounted to 0.9.

For the compound `Nc1nc(Cl)nc2c1ncn2[C@H]1C[C@H](O)[C@@H](CO)O1` [Cladribine], the “eye size Z-score” value came out at 0.3.

As for `CN[C@@H]1[C@H](O[C@H]2[C@H](O[C@H]3[C@H](O)[C@@H](O)[C@H](N=C(N)N)[C@@H](O)[C@@H]3N=C(N)N)O[C@@H](C)[C@]2(O)C=O)O[C@@H](CO)[C@H](O)[C@H]1O` [Streptomycin sulfate], the “eye size Z-score” value turned out to be 0.39.

Regarding `CCCCCCC[N+](CC)(CC)CCCCc1ccc(Cl)cc1` [Clofilium tosylate], the “eye size Z-score” value is -0.4.

In the case of `CCOC(=O)C1=C[C@@H](OC(CC)CC)[C@H](NC(C)=O)[C@@H](N)C1` [Oseltamivir phosphate], the “eye size Z-score” value stood at 0.65.

For `CNCCCC1c2ccccc2C=Cc2ccccc21` [Protriptyline hydrochloride], the “eye size Z-score” value was -0.56.

Turning to `C[C@]12CCC(=O)C=C1CC[C@@H]1[C@@H]2[C@@H](O)C[C@@]2(C)[C@H]1CC[C@]2(O)C(=O)CO` [Hydrocortisone], the “eye size Z-score” value (female) is -0.04.
